Experimental data published in publication PMC8298264, “Function of cofactor Akirin2 in the regulation of gene expression in model human neutrophil-like HL60 cells” (Bioscience Reports, 2021).

B1: sp¦Q13011¦ECH1_HUMAN (protein, UniProt Q13011 34-328, looked up)
Delta(3,5)-Delta(2,4)-dienoyl- …: TGSSAQEEASGVALGEAPDHSYESLRVTSAQKHVLHVQLNRPNKRNAMNKVFWREMVECFNKISRDADCRAVVISGAGKMFTAGIDLMDMASDILQPKGDDVARISWYLRDIITRYQETFNVIERCPKPVIAAVHGGCIGGGVDLVTACDIRYCAQDAFFQVKEVDVGLAADVGTLQRLPKVIGNQSLVNELAFTARKMMADEALGSGLVSRVFPDKEVMLDAALALAAEISSKSPVAVQSTKVNLLYSRDHSVAESLNYVASWNMSMLQTQDLVKSVQATTENKELKTVTFSKL
B2: sp¦Q9BUJ2¦HNRL1_HUMAN (protein, UniProt Q9BUJ2 1-856, looked up)
Heterogeneous nuclear …: MDVRRLKVNELREELQRRGLDTRGLKAELAERLQAALEAEEPDDERELDADDEPGRPGHINEEVETEGGSELEGTAQPPPPGLQPHAEPGGYSGPDGHYAMDNITRQNQFYDTQVIKQENESGYERRPLEMEQQQAYRPEMKTEMKQGAPTSFLPPEASQLKPDRQQFQSRKRPYEENRGRGYFEHREDRRGRSPQPPAEEDEDDFDDTLVAIDTYNCDLHFKVARDRSSGYPLTIEGFAYLWSGARASYGVRRGRVCFEMKINEEISVKHLPSTEPDPHVVRIGWSLDSCSTQLGEEPFSYGYGGTGKKSTNSRFENYGDKFAENDVIGCFADFECGNDVELSFTKNGKWMGIAFRIQKEALGGQALYPHVLVKNCAVEFNFGQRAEPYCSVLPGFTFIQHLPLSERIRGTVGPKSKAECEILMMVGLPAAGKTTWAIKHAASNPSKKYNILGTNAIMDKMRVMGLRRQRNYAGRWDVLIQQATQCLNRLIQIAARKKRNYILDQTNVYGSAQRRKMRPFEGFQRKAIVICPTDEDLKDRTIKRTDEEGKDVPDHAVLEMKANFTLPDVGDFLDEVLFIELQREEADKLVRQYNEEGRKAGPPPEKRFDNRGGGGFRGRGGGGGFQRYENRGPPGGNRGGFQNRGGGSGGGGNYRGGFNRSGGGGYSQNRWGNNNRDNNNSNNRGSYNRAPQQQPPPQQPPPPQPPPQQPPPPPSYSPARNPPGASTYNKNSNIPGSSANTSTPTVSSYSPPQPSYSQPPYNQGGYSQGYTAPPPPPPPPPAYNYGSYGGYNPAPYTPPPPPTAQTYPQPSYNQYQQYAQQWNQYYQNQGQWPPYYGNYDYGSYSGNTQGGTSTQ
B3: sp¦Q53EL6¦PDCD4_HUMAN (protein, UniProt Q53EL6 1-469, looked up)
Programmed cell death protein …: MDVENEQILNVNPADPDNLSDSLFSGDEENAGTEEIKNEINGNWISASSINEARINAKAKRRLRKNSSRDSGRGDSVSDSGSDALRSGLTVPTSPKGRLLDRRSRSGKGRGLPKKGGAGGKGVWGTPGQVYDVEEVDVKDPNYDDDQENCVYETVVLPLDERAFEKTLTPIIQEYFEHGDTNEVAEMLRDLNLGEMKSGVPVLAVSLALEGKASHREMTSKLLSDLCGTVMSTTDVEKSFDKLLKDLPELALDTPRAPQLVGQFIARAVGDGILCNTYIDSYKGTVDCVQARAALDKATVLLSMSKGGKRKDSVWGSGGGQQSVNHLVKEIDMLLKEYLLSGDISEAEHCLKELEVPHFHHELVYEAIIMVLESTGESTFKMILDLLKSLWKSSTITVDQMKRGYERIYNEIPDINLDVPHSYSVLERFVEECFQAGIISKQLRDLCPSRGRKRFVSEGDGGRLKPESY
B4: sp¦Q13043¦STK4_HUMAN (protein, UniProt Q13043 1-487, looked up)
Serine/threonine-protein …: METVQLRNPPRRQLKKLDEDSLTKQPEEVFDVLEKLGEGSYGSVYKAIHKETGQIVAIKQVPVESDLQEIIKEISIMQQCDSPHVVKYYGSYFKNTDLWIVMEYCGAGSVSDIIRLRNKTLTEDEIATILQSTLKGLEYLHFMRKIHRDIKAGNILLNTEGHAKLADFGVAGQLTDTMAKRNTVIGTPFWMAPEVIQEIGYNCVADIWSLGITAIEMAEGKPPYADIHPMRAIFMIPTNPPPTFRKPELWSDNFTDFVKQCLVKSPEQRATATQLLQHPFVRSAKGVSILRDLINEAMDVKLKRQESQQREVDQDDEENSEEDEMDSGTMVRAVGDEMGTVRVASTMTDGANTMIEHDDTLPSQLGTMVINAEDEEEEGTMKRRDETMQPAKPSFLEYFEQKEKENQINSFGKSVPGPLKNSSDWKIPQDGDYEFLKSWTVEDLQKRLLALDPMMEQEIEEIRQKYQSKRQPILDAIEAKKRRQQNF

System: human HL60 cells
Test: SWATH-MS proteomics, differential protein representation, akirin2 KO vs WT HL60 cells
Assay type: cell-based
Details: KO vs WT HL60 cells; sheet "Under-represented in KO"
In short: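 Differential representation compares akirin2 KO with WT HL60 across three biological replicates, 5 µg digest each, acquired by data-independent SWATH on a 120-min gradient. Library built from combined IDA runs searched with Paragon; proteins accepted at 1% FDR, with total-area-sum normalization.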

In order of falling “Fold Change” value:
1. B4  0.8606
2. B3  0.8578
3. B2  0.8561
4. B1  0.8532

In order of falling “Log (Fold Change)” value:
1. B4  -0.06519
2. B3  -0.06661
3. B2  -0.06747
4. B1  -0.06896
